{"sequences": {"note": "Protein sequences, listed by entry. Tags and fused reporters are not part of them.", "UniProt Q0JBA9, entry or part of it": "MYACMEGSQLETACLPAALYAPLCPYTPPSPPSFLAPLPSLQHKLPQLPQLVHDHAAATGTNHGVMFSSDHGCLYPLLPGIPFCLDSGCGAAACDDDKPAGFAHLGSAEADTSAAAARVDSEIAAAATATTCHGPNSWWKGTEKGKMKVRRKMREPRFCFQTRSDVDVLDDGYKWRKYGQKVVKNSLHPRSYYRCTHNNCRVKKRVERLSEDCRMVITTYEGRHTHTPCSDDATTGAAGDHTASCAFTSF"}, "source": "paper PMC7819943", "about": "“Rice protein-binding microarrays: a tool to detect cis-acting elements near promoter regions in rice”", "note": "The other results are listed elsewhere or left out.", "data": [{"target": "OsWRKY34 (Oryza sativa, UniProt Q0JBA9 1-250)", "experiment": "protein-binding microarray (RPBM); PBS, 2% BSA, 51.3 ng/ul salmon testes DNA, 50 uM zinc acetate, 200 nM TF, 25 C, 1 h; high values mean tight binding", "details": "protein: recombinant; tags: N-terminal polyhistidine and DsRed monomer fusion (pET32a); label: CyDye5-dUTP incorporated in the synthesized complementary strand; 3' TTTTT single-stranded linker to array surface; dsDNA, one strand shown", "in_short": "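The binding signal is fluorescence intensity per array feature (arbitrary units). Readings came from an Axon 4000B scanner after a washed, 2% BSA-blocked, double-stranded custom Agilent array had been incubated for 1 h at 25 °C with 200 nM protein and 50 µM zinc acetate. The protein was a Ni–NTA-purified transcription factor fused N-terminally to polyhistidine and DsRed, expressed in E. coli BL21-CodonPlus.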", "values": [{"sequence": "AACCGGCCCGGTTCGGTTCACAGCCACACGCCGCGGCCCGCGGAGTCACCTAGTGCAG", "binding signal": "8020 fluorescence intensity (a.u.)"}, {"sequence": "ACAATTTTAACGTTACACCGAAAACGGCCGCCCATATCACCGGAGTCACCTAGTGCAG", "binding signal": "8840 fluorescence intensity (a.u.)"}, {"sequence": "AGGGCACGGGGAGGGTTGAGCGTGTTGAGCAGCTAACCTTCGGAGTCACCTAGTGCAG", "binding signal": "8140 fluorescence intensity (a.u.)"}, {"sequence": "AAATCGAATTGGGTGGGCTTCGTCTCGGCCTGCAAAGGATCGGAGTCACCTAGTGCAG", "binding signal": "8590 fluorescence intensity (a.u.)"}, {"sequence": "TTAAACTTTTAGGTGGGCATTTGTATGTTGGTATAGTACCCGGAGTCACCTAGTGCAG", "binding signal": "11000 fluorescence intensity (a.u.)"}, {"sequence": "GTAGAGCAGAGTAGTCTCCGTTCCTGGCCGATCCACCATGCGGAGTCACCTAGTGCAG", "binding signal": "8750 fluorescence intensity (a.u.)"}, {"sequence": "GCCCAATGCACTAACATCACCTCTTTTTACTATCTTGAAACGGAGTCACCTAGTGCAG", "binding signal": "8480 fluorescence intensity (a.u.)"}, {"sequence": "AAATGTTTCAATCGTTTAAATCGGGCGTTGTTTGACCGAACGGAGTCACCTAGTGCAG", "binding signal": "8230 fluorescence intensity (a.u.)"}, {"sequence": "CCTGCACCAACTCCGTCCACCACACCGGCGGTGCTGCCGCCGGAGTCACCTAGTGCAG", "binding signal": "8220 fluorescence intensity (a.u.)"}, {"sequence": "GTTTTTTACTGTTCATCTCCAACGTTTGACTGTTCGTTTTCGGAGTCACCTAGTGCAG", "binding signal": "9140 fluorescence intensity (a.u.)"}, {"sequence": "CCCAAGTTCAGGTTGTGTCTGCCTGCCTGCCTGTGAATTTCGGAGTCACCTAGTGCAG", "binding signal": "9530 fluorescence intensity (a.u.)"}, {"sequence": "CACCGCCGCCGCCTCCTCCTCCTCCGCCTCTCTACGGCAGCGGAGTCACCTAGTGCAG", "binding signal": "9980 fluorescence intensity (a.u.)"}, {"sequence": "GGTGTGTTTATAATTAATATACAGATTGTGTCACATTGTTCGGAGTCACCTAGTGCAG", "binding signal": "9000 fluorescence intensity (a.u.)"}, {"sequence": "ACTTTATCTTTTCGACCAATCACAATCCTCCTTCAATTATCGGAGTCACCTAGTGCAG", "binding signal": "8090 fluorescence intensity (a.u.)"}, {"sequence": "CTTTCTTGATTCCTGGAGCTCGCATTTCTTCCTGTGTTAACGGAGTCACCTAGTGCAG", "binding signal": "8370 fluorescence intensity (a.u.)"}, {"sequence": "CACTTCCATCCTTTCTTGTACAGTTGTACTGTTGTTACCTCGGAGTCACCTAGTGCAG", "binding signal": "8760 fluorescence intensity (a.u.)"}, {"sequence": "AGGCCATATCGAAACTGCAGTATTTGCACCCTAGTCTCTACGGAGTCACCTAGTGCAG", "binding signal": "9610 fluorescence intensity (a.u.)"}, {"sequence": "TCCTTTCTTTTTATTTTTTTTTGTCCGGTAGAATGATAAACGGAGTCACCTAGTGCAG", "binding signal": "8070 fluorescence intensity (a.u.)"}, {"sequence": "AAATGACGGTTGACTTATTTCCTTTCTAGTTTGAGTAATTCGGAGTCACCTAGTGCAG", "binding signal": "9320 fluorescence intensity (a.u.)"}, {"sequence": "CTGTTGACTTTTTCTTATATGTTTGACCATTCGTCTTATTCGGAGTCACCTAGTGCAG", "binding signal": "24600 fluorescence intensity (a.u.)"}, {"sequence": "AATCTCCGGACTTTTGGTCTACTTCTGTGTTTTTCCTCTACGGAGTCACCTAGTGCAG", "binding signal": "12000 fluorescence intensity (a.u.)"}, {"sequence": "ATCCACCGTCGTGTCGCCCACTGTCCAACTGCCAGTCAGCCGGAGTCACCTAGTGCAG", "binding signal": "8920 fluorescence intensity (a.u.)"}, {"sequence": "TTGTGCGTGAGTATAGTACTATATATATGTTTTTTTCACACGGAGTCACCTAGTGCAG", "binding signal": "8450 fluorescence intensity (a.u.)"}, {"sequence": "CTGCAGCTCACACCCAAACGCCTCACGCCCCGCCGCCATGCGGAGTCACCTAGTGCAG", "binding signal": "8280 fluorescence intensity (a.u.)"}, {"sequence": "ACCACATTTATCTTGTTTCACCATATTTCCCAGCCACACCCGGAGTCACCTAGTGCAG", "binding signal": "15400 fluorescence intensity (a.u.)"}, {"sequence": "TCATCTTGGTCTAAAGTCTGGTTTAATCGTGGTCTTGTCTCGGAGTCACCTAGTGCAG", "binding signal": "10100 fluorescence intensity (a.u.)"}, {"sequence": "GTATCAGGTTTTTTTTTCCCATATTCCTCCCGCGAGCCTCCGGAGTCACCTAGTGCAG", "binding signal": "8300 fluorescence intensity (a.u.)"}, {"sequence": "CTCCTAGTCCATTCCTTAACGCGCTCAACATTTCTTCGCTCGGAGTCACCTAGTGCAG", "binding signal": "8080 fluorescence intensity (a.u.)"}, {"sequence": "TTCCCAAATTCTAGGGTTCGCCTCTTGCACCGCCACGCATCGGAGTCACCTAGTGCAG", "binding signal": "8790 fluorescence intensity (a.u.)"}, {"sequence": "TAGGACATGTGGGGTTATTGTTTTTTCTTTTCACTGACATCGGAGTCACCTAGTGCAG", "binding signal": "8810 fluorescence intensity (a.u.)"}, {"sequence": "AAACTCTAATCGTACCTGAAACTTTGTGTATTTTAGTCTTCGGAGTCACCTAGTGCAG", "binding signal": "11600 fluorescence intensity (a.u.)"}, {"sequence": "ATTTCTTCCTTATGCATATCTCGTAGTCGACTAGCATTTTCGGAGTCACCTAGTGCAG", "binding signal": "8340 fluorescence intensity (a.u.)"}, {"sequence": "TCAACACCCAGGGCGACGACTTCGACTACCCGGACTTCCCCGGAGTCACCTAGTGCAG", "binding signal": "9570 fluorescence intensity (a.u.)"}, {"sequence": "TTTTCTCGCTCTCTTCTCCGCCAGTCTGAGTCGCCATTCTCGGAGTCACCTAGTGCAG", "binding signal": "8380 fluorescence intensity (a.u.)"}, {"sequence": "TACCAATTTTACTGCTTATCATTTCTAGTGTTCTTTAAGTCGGAGTCACCTAGTGCAG", "binding signal": "9330 fluorescence intensity (a.u.)"}, {"sequence": "TGCCAGCCAAGCATCCAACCTTCTCATTCTTCTTTTCTTTCGGAGTCACCTAGTGCAG", "binding signal": "9770 fluorescence intensity (a.u.)"}, {"sequence": "CGCCTCGGCCCTTTTCGCTTTTTTCCATTGCATGCACATACGGAGTCACCTAGTGCAG", "binding signal": "9210 fluorescence intensity (a.u.)"}, {"sequence": "ACTTCGCTTCTCGGTTGGCAGCAGCGATTTCATCCAAGCACGGAGTCACCTAGTGCAG", "binding signal": "8040 fluorescence intensity (a.u.)"}, {"sequence": "CCTCGTGTACCGTGCGCACGCTTTTTAAACTGTTAAACACCGGAGTCACCTAGTGCAG", "binding signal": "12000 fluorescence intensity (a.u.)"}, {"sequence": "CAGTTCTTCGTTCTTGTCTTTACTCTCATGATTTTCTCTTCGGAGTCACCTAGTGCAG", "binding signal": "10900 fluorescence intensity (a.u.)"}, {"sequence": "AGCTCCATCACATCCTTTTTTTTTCACCTATACTATATAACGGAGTCACCTAGTGCAG", "binding signal": "8920 fluorescence intensity (a.u.)"}, {"sequence": "CGCGCCGCCTCTCCTTGTTGTCTCGTCGCGCGCCGGCGCCCGGAGTCACCTAGTGCAG", "binding signal": "11800 fluorescence intensity (a.u.)"}, {"sequence": "GTCAACTTGCCGTCAACTGTTCGTCTGTTGCCACCCATTTCGGAGTCACCTAGTGCAG", "binding signal": "9410 fluorescence intensity (a.u.)"}, {"sequence": "ATCTACTGTATATATATCCTCTATCTTTAATTATTATTATCGGAGTCACCTAGTGCAG", "binding signal": "10300 fluorescence intensity (a.u.)"}, {"sequence": "TTCTTATTTTTAGGGTCATGTATAGTCGCTGTCATCTTACCGGAGTCACCTAGTGCAG", "binding signal": "11800 fluorescence intensity (a.u.)"}, {"sequence": "TCATTCATATTATTTATTATTTAGTTGTTTGACTTTTTTTCGGAGTCACCTAGTGCAG", "binding signal": "9600 fluorescence intensity (a.u.)"}, {"sequence": "CAAACATGTGCTAAAAAGTCAACGGTGTCAAATATTTTGACGGAGTCACCTAGTGCAG", "binding signal": "8100 fluorescence intensity (a.u.)"}, {"sequence": "ACAACCGAAGTTCCCTCAATTCTTTTTTCTTGACTTGATTCGGAGTCACCTAGTGCAG", "binding signal": "8640 fluorescence intensity (a.u.)"}, {"sequence": "ATGGCAATTACACACCGCCCCATCAGCCCCGTACTCGCTCCGGAGTCACCTAGTGCAG", "binding signal": "8030 fluorescence intensity (a.u.)"}, {"sequence": "ATCTGCCATTTTCTGCTCCTTAAATTCTTTAGCCATGGTACGGAGTCACCTAGTGCAG", "binding signal": "8720 fluorescence intensity (a.u.)"}, {"sequence": "TCGGTGGTGTGGGGAGGTCCGTGGAGATGGCGGCGTGGGGCGGAGTCACCTAGTGCAG", "binding signal": "16100 fluorescence intensity (a.u.)"}, {"sequence": "AACCACTACTTTGTTTCTTGGACTTCTTAGGTTACTTTGTCGGAGTCACCTAGTGCAG", "binding signal": "11400 fluorescence intensity (a.u.)"}, {"sequence": "ATACTTCATCCGTTTCTAAATATTTGATGCCGTTGACTTTCGGAGTCACCTAGTGCAG", "binding signal": "17600 fluorescence intensity (a.u.)"}, {"sequence": "ACTGCGTGTACGGTGTAACGGGTCATTTTTTTCTTTGCTGCGGAGTCACCTAGTGCAG", "binding signal": "8890 fluorescence intensity (a.u.)"}]}]}
